Measured values as given in the supplement of paper PMC6411743.
± gives the standard deviation of the averaged measurements. The entries are a selection whose mix differs from that of the whole data set. Most entries show no effect beyond the scatter of the controls.

Sequences of proteins named here, by UniProt entry; tags and fusion partners are left off. A change or cut given only in a name is not applied to a line headed by its entry.
UniProt Q9C0I1: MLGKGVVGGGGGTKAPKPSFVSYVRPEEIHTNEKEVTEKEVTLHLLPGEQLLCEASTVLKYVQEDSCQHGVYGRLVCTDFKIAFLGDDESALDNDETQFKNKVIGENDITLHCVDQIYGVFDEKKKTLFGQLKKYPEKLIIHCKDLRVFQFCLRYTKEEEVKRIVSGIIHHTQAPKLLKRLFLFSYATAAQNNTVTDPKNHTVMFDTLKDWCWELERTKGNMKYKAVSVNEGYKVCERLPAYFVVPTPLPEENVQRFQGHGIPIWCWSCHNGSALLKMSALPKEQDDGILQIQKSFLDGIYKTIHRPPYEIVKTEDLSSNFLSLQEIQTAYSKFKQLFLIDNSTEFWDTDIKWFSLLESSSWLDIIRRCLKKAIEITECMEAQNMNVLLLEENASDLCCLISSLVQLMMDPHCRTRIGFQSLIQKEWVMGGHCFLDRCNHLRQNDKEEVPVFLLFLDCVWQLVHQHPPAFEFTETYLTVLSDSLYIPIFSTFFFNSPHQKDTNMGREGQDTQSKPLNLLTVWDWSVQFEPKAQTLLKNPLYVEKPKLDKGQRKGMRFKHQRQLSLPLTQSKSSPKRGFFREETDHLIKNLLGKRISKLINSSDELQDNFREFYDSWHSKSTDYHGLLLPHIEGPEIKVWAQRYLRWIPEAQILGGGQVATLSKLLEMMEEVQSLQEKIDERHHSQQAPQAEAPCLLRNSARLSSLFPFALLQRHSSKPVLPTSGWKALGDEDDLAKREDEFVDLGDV
UniProt Q9H6R7: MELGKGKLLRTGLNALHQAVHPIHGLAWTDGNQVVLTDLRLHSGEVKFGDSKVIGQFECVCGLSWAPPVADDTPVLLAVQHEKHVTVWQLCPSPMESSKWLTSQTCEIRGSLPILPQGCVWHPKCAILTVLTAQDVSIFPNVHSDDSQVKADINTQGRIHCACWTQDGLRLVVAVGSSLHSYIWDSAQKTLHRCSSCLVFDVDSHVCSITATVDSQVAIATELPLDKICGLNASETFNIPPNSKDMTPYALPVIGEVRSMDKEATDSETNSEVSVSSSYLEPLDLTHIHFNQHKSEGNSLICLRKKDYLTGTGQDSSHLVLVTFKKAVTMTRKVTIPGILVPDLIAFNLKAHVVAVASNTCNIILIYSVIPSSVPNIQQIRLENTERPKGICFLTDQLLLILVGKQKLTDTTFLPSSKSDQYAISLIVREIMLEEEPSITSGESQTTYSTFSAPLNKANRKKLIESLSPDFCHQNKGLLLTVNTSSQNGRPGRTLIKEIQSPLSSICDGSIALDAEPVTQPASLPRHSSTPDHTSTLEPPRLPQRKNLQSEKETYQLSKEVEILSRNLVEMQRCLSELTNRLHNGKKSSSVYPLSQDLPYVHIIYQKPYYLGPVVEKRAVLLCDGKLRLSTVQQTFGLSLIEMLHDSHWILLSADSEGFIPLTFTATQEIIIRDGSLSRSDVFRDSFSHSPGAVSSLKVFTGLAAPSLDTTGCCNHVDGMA
UniProt Q9HCM7, whole entry: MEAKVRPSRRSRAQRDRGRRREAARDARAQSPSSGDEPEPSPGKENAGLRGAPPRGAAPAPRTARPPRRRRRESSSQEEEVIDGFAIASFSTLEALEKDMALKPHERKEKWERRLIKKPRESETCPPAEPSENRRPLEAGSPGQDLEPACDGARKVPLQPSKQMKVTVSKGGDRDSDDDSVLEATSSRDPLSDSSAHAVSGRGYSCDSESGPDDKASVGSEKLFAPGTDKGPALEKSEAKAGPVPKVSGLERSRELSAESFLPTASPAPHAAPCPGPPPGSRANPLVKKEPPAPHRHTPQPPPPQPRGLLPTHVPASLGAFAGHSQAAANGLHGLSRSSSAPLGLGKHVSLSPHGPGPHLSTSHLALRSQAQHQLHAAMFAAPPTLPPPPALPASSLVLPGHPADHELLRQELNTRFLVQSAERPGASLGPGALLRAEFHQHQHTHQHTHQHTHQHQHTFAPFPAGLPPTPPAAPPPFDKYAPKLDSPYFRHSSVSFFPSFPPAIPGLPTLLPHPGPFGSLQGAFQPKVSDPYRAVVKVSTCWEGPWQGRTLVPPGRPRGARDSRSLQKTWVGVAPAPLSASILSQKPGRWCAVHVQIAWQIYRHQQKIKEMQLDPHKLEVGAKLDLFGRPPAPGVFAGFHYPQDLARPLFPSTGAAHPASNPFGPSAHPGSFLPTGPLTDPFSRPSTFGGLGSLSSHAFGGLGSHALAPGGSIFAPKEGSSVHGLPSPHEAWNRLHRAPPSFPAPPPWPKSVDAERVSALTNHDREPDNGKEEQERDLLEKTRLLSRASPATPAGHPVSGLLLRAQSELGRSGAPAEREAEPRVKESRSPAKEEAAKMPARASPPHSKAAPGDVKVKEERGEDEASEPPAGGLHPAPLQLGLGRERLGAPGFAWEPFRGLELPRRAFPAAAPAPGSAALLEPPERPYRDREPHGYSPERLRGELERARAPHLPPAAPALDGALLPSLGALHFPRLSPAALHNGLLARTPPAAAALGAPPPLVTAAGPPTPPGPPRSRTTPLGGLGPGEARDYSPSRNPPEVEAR
UniProt Q9HAD4: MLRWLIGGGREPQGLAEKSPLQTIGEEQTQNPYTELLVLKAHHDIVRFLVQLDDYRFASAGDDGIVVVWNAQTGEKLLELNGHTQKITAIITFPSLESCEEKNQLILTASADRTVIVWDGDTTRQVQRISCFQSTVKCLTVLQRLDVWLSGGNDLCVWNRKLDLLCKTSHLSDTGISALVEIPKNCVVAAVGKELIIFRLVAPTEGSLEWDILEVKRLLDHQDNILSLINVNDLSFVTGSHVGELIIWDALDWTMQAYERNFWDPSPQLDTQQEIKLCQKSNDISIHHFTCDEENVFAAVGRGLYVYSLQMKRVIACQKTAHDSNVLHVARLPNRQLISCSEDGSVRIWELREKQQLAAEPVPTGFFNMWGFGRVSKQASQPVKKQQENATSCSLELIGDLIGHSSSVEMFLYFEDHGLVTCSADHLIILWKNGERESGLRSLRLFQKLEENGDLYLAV
UniProt Q9H9H4: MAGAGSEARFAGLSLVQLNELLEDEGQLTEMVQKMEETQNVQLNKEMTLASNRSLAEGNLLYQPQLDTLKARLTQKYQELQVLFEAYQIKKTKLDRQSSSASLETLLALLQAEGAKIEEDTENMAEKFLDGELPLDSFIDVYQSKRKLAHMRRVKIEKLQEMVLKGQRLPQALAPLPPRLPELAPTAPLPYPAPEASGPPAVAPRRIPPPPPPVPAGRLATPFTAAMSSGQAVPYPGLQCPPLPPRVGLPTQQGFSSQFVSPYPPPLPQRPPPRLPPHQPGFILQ
UniProt Q9H4A3: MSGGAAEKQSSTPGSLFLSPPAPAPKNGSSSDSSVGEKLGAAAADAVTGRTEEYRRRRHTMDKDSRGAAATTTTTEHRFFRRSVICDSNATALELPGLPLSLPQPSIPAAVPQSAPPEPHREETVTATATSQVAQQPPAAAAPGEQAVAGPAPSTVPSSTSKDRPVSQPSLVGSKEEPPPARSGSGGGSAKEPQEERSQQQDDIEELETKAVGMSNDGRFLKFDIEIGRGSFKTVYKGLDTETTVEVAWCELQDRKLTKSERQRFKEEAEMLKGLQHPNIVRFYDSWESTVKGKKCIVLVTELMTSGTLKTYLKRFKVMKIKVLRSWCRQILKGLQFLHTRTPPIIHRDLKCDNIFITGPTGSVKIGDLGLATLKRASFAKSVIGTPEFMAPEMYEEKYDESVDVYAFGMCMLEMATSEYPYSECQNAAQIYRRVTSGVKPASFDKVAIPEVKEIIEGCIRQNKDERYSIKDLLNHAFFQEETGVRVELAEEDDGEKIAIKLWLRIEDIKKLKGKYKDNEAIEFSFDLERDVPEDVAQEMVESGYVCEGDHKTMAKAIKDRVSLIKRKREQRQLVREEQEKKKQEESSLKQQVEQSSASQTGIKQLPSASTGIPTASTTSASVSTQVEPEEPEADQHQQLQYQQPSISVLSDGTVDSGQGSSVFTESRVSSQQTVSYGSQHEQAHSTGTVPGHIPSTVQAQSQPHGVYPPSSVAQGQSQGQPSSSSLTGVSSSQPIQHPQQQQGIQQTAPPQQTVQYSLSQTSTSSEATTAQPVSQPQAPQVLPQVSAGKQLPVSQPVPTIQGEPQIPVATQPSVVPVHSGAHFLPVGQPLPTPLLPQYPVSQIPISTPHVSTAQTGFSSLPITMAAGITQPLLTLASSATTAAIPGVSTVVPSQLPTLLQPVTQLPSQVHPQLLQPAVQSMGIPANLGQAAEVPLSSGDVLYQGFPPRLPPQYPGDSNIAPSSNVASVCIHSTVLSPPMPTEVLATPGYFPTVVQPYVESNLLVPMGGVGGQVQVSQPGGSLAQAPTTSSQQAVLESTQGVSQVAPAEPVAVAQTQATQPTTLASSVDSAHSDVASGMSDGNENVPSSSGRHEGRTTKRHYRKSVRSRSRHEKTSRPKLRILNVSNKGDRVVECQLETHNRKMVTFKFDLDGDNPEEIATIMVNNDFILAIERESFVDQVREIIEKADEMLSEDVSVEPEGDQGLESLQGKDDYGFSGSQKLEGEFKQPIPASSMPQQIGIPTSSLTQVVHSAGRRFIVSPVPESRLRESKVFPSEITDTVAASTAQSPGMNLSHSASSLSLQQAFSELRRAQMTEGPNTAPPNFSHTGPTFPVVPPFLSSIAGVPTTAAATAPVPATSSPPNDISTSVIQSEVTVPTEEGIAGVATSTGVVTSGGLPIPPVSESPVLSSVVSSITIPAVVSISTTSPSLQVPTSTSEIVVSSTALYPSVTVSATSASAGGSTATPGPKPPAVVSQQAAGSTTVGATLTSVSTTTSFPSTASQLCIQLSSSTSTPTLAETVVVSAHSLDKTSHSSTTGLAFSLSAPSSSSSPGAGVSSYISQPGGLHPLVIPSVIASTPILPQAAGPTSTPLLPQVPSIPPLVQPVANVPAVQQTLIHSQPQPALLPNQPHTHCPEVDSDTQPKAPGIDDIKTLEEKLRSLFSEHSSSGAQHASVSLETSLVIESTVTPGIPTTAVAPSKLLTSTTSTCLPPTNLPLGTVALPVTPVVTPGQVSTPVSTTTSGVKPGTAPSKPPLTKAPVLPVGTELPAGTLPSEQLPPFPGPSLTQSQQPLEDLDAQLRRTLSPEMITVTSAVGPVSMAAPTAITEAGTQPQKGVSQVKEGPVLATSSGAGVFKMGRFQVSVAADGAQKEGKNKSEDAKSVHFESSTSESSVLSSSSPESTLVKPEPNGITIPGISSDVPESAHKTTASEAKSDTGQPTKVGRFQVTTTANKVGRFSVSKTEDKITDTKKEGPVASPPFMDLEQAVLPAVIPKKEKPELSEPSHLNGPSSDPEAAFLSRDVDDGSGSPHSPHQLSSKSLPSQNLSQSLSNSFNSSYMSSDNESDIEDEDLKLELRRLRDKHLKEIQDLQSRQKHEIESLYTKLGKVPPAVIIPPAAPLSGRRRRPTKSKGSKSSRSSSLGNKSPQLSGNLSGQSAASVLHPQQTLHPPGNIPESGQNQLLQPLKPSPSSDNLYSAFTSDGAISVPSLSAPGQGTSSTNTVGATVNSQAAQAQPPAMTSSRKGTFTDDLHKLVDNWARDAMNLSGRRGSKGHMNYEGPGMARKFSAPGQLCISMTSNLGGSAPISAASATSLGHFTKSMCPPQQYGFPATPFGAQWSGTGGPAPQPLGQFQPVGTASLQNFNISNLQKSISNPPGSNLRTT
UniProt Q9H0U9: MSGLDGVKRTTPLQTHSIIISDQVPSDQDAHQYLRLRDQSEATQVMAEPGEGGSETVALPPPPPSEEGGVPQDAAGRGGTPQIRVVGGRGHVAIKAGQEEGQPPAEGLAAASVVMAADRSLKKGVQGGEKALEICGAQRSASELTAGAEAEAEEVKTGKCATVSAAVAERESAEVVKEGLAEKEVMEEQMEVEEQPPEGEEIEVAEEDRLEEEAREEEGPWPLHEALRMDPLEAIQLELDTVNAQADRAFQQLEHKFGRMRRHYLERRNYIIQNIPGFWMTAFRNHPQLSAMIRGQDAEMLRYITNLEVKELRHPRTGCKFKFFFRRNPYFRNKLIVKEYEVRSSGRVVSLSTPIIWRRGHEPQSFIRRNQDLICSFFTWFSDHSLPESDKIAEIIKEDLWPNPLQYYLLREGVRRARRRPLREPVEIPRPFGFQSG
UniProt Q9H0S4: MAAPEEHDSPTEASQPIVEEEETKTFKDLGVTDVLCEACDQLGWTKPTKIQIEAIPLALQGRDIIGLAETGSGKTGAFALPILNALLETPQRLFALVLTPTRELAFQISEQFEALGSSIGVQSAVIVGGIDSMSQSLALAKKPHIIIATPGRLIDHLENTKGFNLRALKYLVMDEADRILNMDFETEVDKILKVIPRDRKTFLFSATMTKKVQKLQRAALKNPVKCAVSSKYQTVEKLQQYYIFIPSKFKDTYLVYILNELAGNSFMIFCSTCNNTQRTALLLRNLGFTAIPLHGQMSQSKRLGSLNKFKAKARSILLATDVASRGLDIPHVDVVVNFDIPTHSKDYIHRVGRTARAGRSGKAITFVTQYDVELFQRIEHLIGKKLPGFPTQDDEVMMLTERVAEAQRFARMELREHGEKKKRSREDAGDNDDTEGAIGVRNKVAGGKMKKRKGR

Compound: Nc1ncnc2c1ncn2[C@@H]1O[C@H](COP(=O)(O)OP(=O)(O)OP(=O)(O)O)[C@@H](O)[C@H]1O [adenosine triphosphate]
Experiment: NP40-soluble protein abundance relative to vehicle (solubility fold change) (ratio); higher = more soluble protein in presence of ATP
How it was run: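 Jurkat crude lysate (Dounce-homogenised) was treated with eight concentrations from 0.1 to 10 mM for 10 min at room temperature, then 3 min at 37 °C. It was solubilised with 0.8% NP40 and benzonase (60 min, 4 °C) and ultracentrifuged, and the supernatant was TMT-labelled for LC-MS/MS. Intensities were vsn-normalised, and the value is the fold change against the NP40-processed vehicle per replicate, from three independent experiments.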

Target	NP40-soluble protein abundance (concentration: 0.1mM)	NP40-soluble protein abundance (concentration: 0.5mM)	NP40-soluble protein abundance (concentration: 1mM)	NP40-soluble protein abundance (concentration: 2mM)	NP40-soluble protein abundance (concentration: 4mM)	NP40-soluble protein abundance (concentration: 6mM)	NP40-soluble protein abundance (concentration: 8mM)	NP40-soluble protein abundance (concentration: 10mM)
SAP30L (UniProt Q9HAJ7)	1.01 ± 0.045	1 ± 0.12	1.0942 ± 0.00039	1.12 ± 0.069	1.13 ± 0.092	1.185 ± 0.0041	1.11 ± 0.13	1.07 ± 0.082
UniProt Q9C0I1	1 ± 0.12	1.02 ± 0.097						
UniProt Q9H6R7 and related entries	0.969 ± 0.085	0.956 ± 0.098						
UniProt Q9HCM7	1.1317 ± 0.0011	1.66 ± 0.13	1.71 ± 0.25	1.84 ± 0.31	2.2 ± 0.52	2.13 ± 0.52	2.62 ± 0.69	2.78 ± 0.79
WDR41 (UniProt Q9HAD4)	1.08 ± 0.058	1.04 ± 0.019	1.03 ± 0.026	0.994 ± 0.08	1.08 ± 0.062	1 ± 0.033	1 ± 0.065	1.01 ± 0.043
UniProt Q9HC36	0.995 ± 0.04	1.1 ± 0.099	1.11 ± 0.06	1.29 ± 0.068	1.57 ± 0.13	1.8 ± 0.21	2.03 ± 0.2	2.37 ± 0.32
VPS37B (UniProt Q9H9H4)	0.951 ± 0.11	0.894 ± 0.1	0.992 ± 0.11	0.958 ± 0.12	0.967 ± 0.057	0.983 ± 0.12	0.946 ± 0.073	0.887 ± 0.13
UniProt Q9H4A3 and related entries	1.01 ± 0.02	1.03 ± 0.063						
TSPYL1 (UniProt Q9H0U9)	0.951 ± 0.014	0.99 ± 0.04						
MYH16 (UniProt Q9H6N6)	0.967 ± 0.015	0.987 ± 0.036						
UniProt Q9H0S4 and related entries	1.09 ± 0.013	1.11 ± 0.022	1.18 ± 0.12	1.23 ± 0.072	1.44 ± 0.03	1.5 ± 0.09	1.79 ± 0.073	1.99 ± 0.11

Taken from above.
NP40-soluble protein abundance (concentration: 0.1mM) with MYH16 (UniProt Q9H6N6) is entered as 0.967 ± 0.015
NP40-soluble protein abundance (concentration: 10mM) with UniProt Q9HC36 is entered as 2.37 ± 0.32
